# About 6,100 (1.1%) of roughly 580,000 compounds were called active. The inconclusive results got no clear call from the source; some entries with a clear call stand among them for comparison. The call rests on the fitted dose curve; in most records, active means well fitted inhibition curve with a large enough effect; inconclusive means small, poorly fitted or top-dose-only effect, or another doubt; inactive means no such curve, though single readings can be large or run the other way. A potency beside an inconclusive call is a rough fit, not a confirmed value.
# Chains of the proteins cited; added tags and fusions are not shown.
# UniProt P18054, whole entry, looked up: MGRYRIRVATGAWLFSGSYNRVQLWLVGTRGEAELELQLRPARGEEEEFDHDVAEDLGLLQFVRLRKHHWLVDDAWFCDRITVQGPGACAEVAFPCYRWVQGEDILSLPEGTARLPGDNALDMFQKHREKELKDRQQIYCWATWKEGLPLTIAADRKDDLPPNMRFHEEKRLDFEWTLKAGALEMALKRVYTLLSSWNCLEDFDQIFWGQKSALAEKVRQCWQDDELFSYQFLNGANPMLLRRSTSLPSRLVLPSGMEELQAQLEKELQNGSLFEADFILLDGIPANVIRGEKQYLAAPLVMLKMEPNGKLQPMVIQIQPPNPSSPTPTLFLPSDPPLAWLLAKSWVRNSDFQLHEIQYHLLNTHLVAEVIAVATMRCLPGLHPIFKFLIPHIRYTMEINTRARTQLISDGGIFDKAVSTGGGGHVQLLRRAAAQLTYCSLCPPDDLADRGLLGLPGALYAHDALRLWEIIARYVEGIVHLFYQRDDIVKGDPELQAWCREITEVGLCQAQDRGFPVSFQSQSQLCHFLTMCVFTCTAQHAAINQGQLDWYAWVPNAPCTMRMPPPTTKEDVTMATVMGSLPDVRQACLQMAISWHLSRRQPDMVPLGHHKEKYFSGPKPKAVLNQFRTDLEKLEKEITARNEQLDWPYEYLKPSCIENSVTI
# Target: Polyunsaturated fatty acid lipoxygenase ALOX12 (Homo sapiens) (UniProt P18054)
# Assay: Primary qHTS assay for inhibitors of human arachidonate 12S-lipoxygenase (ALOX12): Round 2
# Conditions: purified 12hLO, xylenol orange hydroperoxide absorbance; activity change, negative = inhibition: at 108 µM (top of the series) unless noted
# How it was run: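 Purified human 12hLO at 150 nM in 25 mM Hepes, 0.01% Triton X-100, pH 7.0, preincubated 15 min at room temperature with compound. Reaction started with 40 uM arachidonic acid, 30 min at room temperature. Hydroperoxide measured by Fe-xylenol orange, 573/405 nm absorbance ratio.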
# On the % scale 0 is the no-effect control and ±100 the full control effect; potency means the concentration at half of the fitted maximal effect.
Compound,Potency,"activity change, negative = inhibition"
COC(=O)c1ccc(N2C(=O)CC(SCCN)C2=O)cc1 (stereo not drawn),"inconclusive: 39.8 µM [inhibitor, single point]",
CC(=O)Nc1ccc(NC(=O)c2csc(NC(C)C)n2)cc1,,inactive: 4.11%
COc1ccc(OC)c(CC(=O)Nc2ccc3c(c2)CCC3)c1,,inactive: -17.9%
COc1ccccc1Cc1c(-c2cccc(Br)c2)nc2ccc(Br)cn12,"inconclusive: 79.4 µM [inhibitor, single point]",
S=c1[nH]nc(-c2ccc(Cl)cc2Cl)n1Cc1ccccc1,"inconclusive: 44.7 µM [inhibitor, partial curve, poor fit]",
O=C(O)c1[nH]c2ccc(Cl)cc2c1CC(=O)N1CCN(C(=O)c2ccco2)CC1,"inconclusive: 17.8 µM [inhibitor, partial curve, poor fit]",
C=C1CCC2[C@](C)(CO)[C@H](O)CC[C@@]2(C)[C@@H]1/C=C/C1=CCOC1=O (stereo partly drawn),"inconclusive: 100 µM [inhibitor, single point]",
CCN(CCCNC(=O)c1nn(-c2ccc(OC)c(Cl)c2)c(=O)c2c1c1ccccc1n2C)c1cccc(C)c1,"inconclusive: 112 µM [inhibitor, partial curve, poor fit]",
Cc1cc(Cl)ccc1OCC(=O)N(Cc1ccco1)c1c(N)n(Cc2ccccc2)c(=O)[nH]c1=O,"inconclusive: 70.8 µM [inhibitor, partial curve, poor fit]",
O=C(c1c(O)c2ccccc2oc1=O)C1CCCCC1,,inactive: 0%
CCSc1nc2c(c(=O)[nH]1)C(c1ccc(O)c(OC)c1)C1=C(CCCC1=O)N2 (stereo not drawn),"inconclusive: 35.5 µM [inhibitor, partial curve, poor fit]",
CCOC(=O)c1c(NC(=S)Nc2ccccc2)sc(C)c1C,,inactive: -26.1%
COC(=O)CCc1sc(NC2CCCCC2)nc1-c1ccc(OC)cc1,"inconclusive: 44.7 µM [inhibitor, partial curve, poor fit]",
N#Cc1c(-c2ccccc2)cc(-c2cccs2)nc1SCCS(=O)(=O)c1nc2ccccc2s1,"inconclusive: 17.8 µM [inhibitor, single point]",
COc1ccccc1CNC(=O)C[C@@H]1C[C@H]2c3cc(N(C)C)ccc3O[C@H]2[C@H](CO)O1,"inconclusive: 7.94 µM [inhibitor, full curve, poor fit]",
CCN(CC)c1ccc(C(=O)c2ccccc2C(=O)O)c(O)c1,"inconclusive: 63.1 µM [inhibitor, partial curve, poor fit]",
CCOCCn1c(CN2CCN(C(=O)OCC)CC2)nc2c1c(=O)[nH]c(=O)n2C,,inactive: -7.04%
COc1ccc([N+](=O)[O-])cc1NC(=O)CCN1CCOCC1,,inactive: 15.8%
Cc1cc(C)cc(-n2ccnc2SCC(=O)Nc2ccc3c(c2)OCCO3)c1,,inactive: 450%
Cc1cccc(Nc2ncccc2C(=O)O)c1C,,inactive: -22.3%
CCCCNC(=S)NCc1ccc2[nH]c(C)cc2c1,"inconclusive: 28.2 µM [inhibitor, partial curve, poor fit]",
Clc1ccc(Cl)c(OCCN2CCCC2)c1,"inconclusive: 3.98 µM [inhibitor, full curve, poor fit]",

Compound,Potency,"activity change, negative = inhibition"
CCc1ccccc1Nc1cc(C(=O)NC2CCC(C)CC2)c2ccccc2n1 (stereo not drawn),,inactive: -26%
COc1ccc(C(C)(C)C)cc1NC(=S)NCCN1CCOCC1,"inconclusive: 50.1 µM [inhibitor, partial curve, poor fit]",
CCn1c(=O)c([N+](=O)[O-])c(NC2CCS(=O)(=O)C2)c2ccccc21 (stereo not drawn),"inconclusive: 112 µM [inhibitor, single point]",
COc1ccc(C(=O)N2CCC3(CC2)CC(=O)c2ccc(Cl)cc2O3)cc1,"inconclusive: 44.7 µM [inhibitor, partial curve]",
O=C(/C=C/c1ccc(O)c(O)c1)c1ccccc1O,active: 7.08 µM,
COc1ccccc1C(=O)N1CCC(N2Cc3cnc(C)n3C2=O)CC1,"inconclusive: 15.8 µM [inhibitor, full curve]",
CN(C)c1ccc(C2Nc3ccc4ccccc4c3C3=C2C(=O)CC(C)(C)C3)cc1Br (stereo not drawn),"inconclusive: 21.7 µM [inhibitor, partial curve, poor fit]",
CCc1nnc(NC(=O)C2Cc3ccccc3CN2S(=O)(=O)c2cccs2)s1 (stereo not drawn),,inactive: 0%
O=C(CN(c1ccccc1)S(=O)(=O)c1ccc(F)cc1)N1CCCCCC1,"inconclusive: 17.8 µM [inhibitor, partial curve, poor fit]",
Cc1ccc(CN2C(=O)C(Cc3ccccc3)Nc3ncnc(N4CCCCC4)c32)cc1 (stereo not drawn),inactive,
CC1=NN(c2ccc(Br)cc2)C(=O)/C1=C/c1cccs1,,inactive: 182%
CNC(=O)Nc1ccc(C)n(CC(=O)NCc2ccccc2C)c1=O,,inactive: 40.4%
Cc1cccc(C(=O)NC(=S)NCc2ccccc2)c1,"inconclusive: 12.6 µM [inhibitor, full curve, poor fit]",
CC(C(=O)O)N1C(=O)CSC1=S (stereo not drawn),"inconclusive: 31.6 µM [inhibitor, partial curve, poor fit]",
O=C(c1nc(-c2ccc(Cl)cc2Cl)c2ccccn12)N1CCOCC1,"inconclusive: 44.7 µM [inhibitor, partial curve, poor fit]",
Cc1nn(-c2ccccc2)c(N2CCCC2)c1/C=N/NC(=O)c1cccc(S(=O)(=O)Nc2ccc(Cl)cc2)c1,,inactive: -6.49%
Cc1cc2ccccc2n1CCNC(=O)C(C)C,"inconclusive: 50.1 µM [inhibitor, partial curve, poor fit]",
CC(Cc1cccnc1)NC(=O)c1cc(COc2ccc(F)cc2Cl)on1 (stereo not drawn),,inactive: 9.09%
CN(C)CC1CCC/C(=C\c2ccc(OC(=O)/C=C/c3ccccc3)cc2)C1=O (stereo not drawn),"inconclusive: 79.4 µM [inhibitor, partial curve, poor fit]",
CC1CC(=S)Nc2ccccc2S1 (stereo not drawn),"inconclusive: 50.1 µM [inhibitor, partial curve, poor fit]",
COc1cc(C(=O)N/N=C\c2ccccc2)c([N+](=O)[O-])c(OC)c1OC,"inconclusive: 14.1 µM [inhibitor, partial curve, poor fit]",

# 3 entries already listed, arranged by SMILES length, rising.
Compound,Potency,"activity change, negative = inhibition"
COc1ccc([N+](=O)[O-])cc1NC(=O)CCN1CCOCC1,,inactive: 15.8%
O=C(c1nc(-c2ccc(Cl)cc2Cl)c2ccccn12)N1CCOCC1,"inconclusive: 44.7 µM [inhibitor, partial curve, poor fit]",
C=C1CCC2[C@](C)(CO)[C@H](O)CC[C@@]2(C)[C@@H]1/C=C/C1=CCOC1=O (stereo partly drawn),"inconclusive: 100 µM [inhibitor, single point]",
